These are yes or no findings as the source states them, for the method shown. Some binding calls cover weakened binding; strength is not graded here.

Amino acid sequences for entries named in this document (tags omitted). Residues count along the entry.
UniProt P50282, residues 20-708: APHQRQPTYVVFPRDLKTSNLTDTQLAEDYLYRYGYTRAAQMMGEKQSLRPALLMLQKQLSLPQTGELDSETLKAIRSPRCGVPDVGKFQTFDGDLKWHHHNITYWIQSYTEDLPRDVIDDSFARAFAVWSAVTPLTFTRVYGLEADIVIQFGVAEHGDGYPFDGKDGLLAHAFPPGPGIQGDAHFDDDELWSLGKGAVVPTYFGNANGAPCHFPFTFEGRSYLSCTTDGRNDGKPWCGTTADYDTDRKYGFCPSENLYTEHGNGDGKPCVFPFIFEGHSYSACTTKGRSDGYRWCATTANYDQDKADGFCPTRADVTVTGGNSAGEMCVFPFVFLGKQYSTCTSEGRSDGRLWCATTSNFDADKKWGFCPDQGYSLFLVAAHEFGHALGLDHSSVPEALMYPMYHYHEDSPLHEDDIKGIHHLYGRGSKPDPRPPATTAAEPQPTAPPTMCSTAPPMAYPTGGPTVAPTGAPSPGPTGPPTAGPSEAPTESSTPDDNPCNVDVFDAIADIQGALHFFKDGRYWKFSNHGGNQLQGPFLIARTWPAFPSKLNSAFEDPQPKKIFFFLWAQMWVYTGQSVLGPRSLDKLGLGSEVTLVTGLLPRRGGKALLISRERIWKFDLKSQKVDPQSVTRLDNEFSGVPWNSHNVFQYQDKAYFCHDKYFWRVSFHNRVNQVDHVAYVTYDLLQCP

Experiment [1] addresses カニクイザルMMP9 (cynomolgus monkey). Put plainly: binding test (Table 2, not shown).
A further experiment deals with ラットMMP9 (rat) (UniProt P50282). Put plainly: binding test (Table 2, not shown).

B1: マウスモノクローナル抗MMP9抗体(AB0041) (antibody, mouse IgG2b, V domains shown)
VH: QVQLKESGPGLVAPSQSLSITCTVSGFSLLSYGVHWVRQPPGKGLEWLGVIWTGGTTNYNSALMSRLSISKDDSKSQVFLKMNSLQTDDTAIYYCARYYYGMDYWGQGTSVTVSS
VL: DIVMTQSHKFMSTSVGDRVSITCKASQDVRNTVAWYQQKTGQSPKLLIYSSSYRNTGVPDRFTGSGSGTDFTFTISSVQAEDLAVYFCQQHYITPYTFGGGTKLEIK
B1: the binding entry (in experiment [1]; with ラットMMP9 (rat)) was “binds” in each case.

The values are drawn from patent JP2016106147A.
